{"source": "the supplement of paper PMC4604168 (melanoma cell lines)", "note": "Some of the results follow. Single values are uncertain, as repeats are few or missing.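 Cells were imaged in 1,536-well plates, and nuclei stained with an antibody against cleaved PARP were counted against all DNA-stained nuclei to give the apoptosis fraction. Screening doses were chosen to leave most cells alive, and resting and induced cleaved-PARP levels differ strongly between cell lines.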", "data": [{"system": "501Mel", "test": "cleaved PARP positive nuclei fraction relative to DMSO control; melanoma cells; higher = more apoptosis", "settings": "library dose: low library concentration; 72 h", "units": {"cleaved PARP positive nuclei fraction": "%"}, "values": [{"smiles": "Cn1nnc2c(C(N)=O)ncn2c1=O", "note": "[temozolomide] + COc1cc(N2CCC(N3CCN(C)CC3)CC2)ccc1Nc1ncc(Cl)c(Nc2ccccc2S(=O)(=O)C(C)C)n1 [NVP-TAE684] (first compound 2 µM, partner dose 0.08 µM)", "cleaved PARP positive nuclei fraction": 68.1}, {"smiles": "O=C(CCCCCCC(=O)Nc1ccccc1)NO", "note": "[vorinostat] + COc1ccc(COc2ccc(Cc3cnc(N)nc3N)cc2OC)cc1 [GW2580] (first compound 0.08 µM, partner dose 1 µM)", "cleaved PARP positive nuclei fraction": 182}, {"smiles": "C#Cc1cccc(Nc2ncnc3cc(OCCOC)c(OCCOC)cc23)c1", "note": "[erlotinib] + Oc1cc(-c2nc(-c3ccccc3)[nH]c2-c2ccncc2)ccc1Cl [L779450] (first compound 0.8 µM, partner dose 0.2 µM)", "cleaved PARP positive nuclei fraction": 87.3}, {"smiles": "C#Cc1cccc(Nc2ncnc3cc(OCCOC)c(OCCOC)cc23)c1", "note": "[erlotinib] + N#Cc1c(O)c2c(-c3ccc(-c4ccccc4O)cc3)csc2[nH]c1=O [A769662] (first compound 0.8 µM, partner dose 2 µM)", "cleaved PARP positive nuclei fraction": 77.6}, {"smiles": "COCC[n+]1c2c(n(Cc3cnccn3)c1C)C(=O)c1ccccc1C2=O", "note": "+ COc1ccc(-c2ccc3c(N4CCOCC4)nc(N4C[C@@H](C)O[C@@H](C)C4)nc3n2)cc1CO [KU0063794] (first compound 0.0004 µM, partner dose 0.02 µM)", "cleaved PARP positive nuclei fraction": 251}, {"smiles": "COc1cc(Nc2ncc(F)c(Nc3ccc4c(n3)NC(=O)C(C)(C)O4)n2)cc(OC)c1OC", "note": "[Tamatinib] + O=C1NC(=O)/C(=C/c2ccc(-c3ccc(F)cc3O)o2)S1 [AS252424] (first compound 0.4 µM, partner dose 1 µM)", "cleaved PARP positive nuclei fraction": 217}, {"smiles": "OCCn1cc(-c2cnc3nnn(Cc4ccc5ncccc5c4)c3n2)cn1", "note": "+ Cc1cc([N+](=O)[O-])ccc1NS(=O)(=O)c1cc(Cl)ccc1Cl [FH535] (first compound 1 µM, partner dose 1 µM)", "cleaved PARP positive nuclei fraction": 69.8}, {"smiles": "Nc1cccc2c1CN(C1CCC(=O)NC1=O)C2=O", "note": "(centres undefined) [lenalidomide] + CCN(CC)CCCCNc1ncc2cc(-c3cc(OC)cc(OC)c3)c(NC(=O)NC(C)(C)C)nc2n1 [PD173074] (first compound 1 µM, partner dose 0.1 µM)", "cleaved PARP positive nuclei fraction": 147}, {"smiles": "C[C@@H]1CCN(C(=O)CC#N)C[C@@H]1N(C)c1ncnc2[nH]ccc12", "note": "+ O=C(O)C(=O)Nc1sc2c(c1C(=O)O)CCNC2 [TCS401] (first compound 1 µM, partner dose 1.66667 µM)", "cleaved PARP positive nuclei fraction": 76.3}, {"smiles": "OCCn1cc(-c2cnc3nnn(Cc4ccc5ncccc5c4)c3n2)cn1", "note": "+ COc1ccc2c(c1)CCC1C2CCC2(C)C(NCCCCCCN3C(=O)C=CC3=O)CCC12 [U73122] (first compound 1 µM, partner dose 0.4 µM)", "cleaved PARP positive nuclei fraction": 168}, {"smiles": "Cc1cc(N2CCOCC2)cc2[nH]c(-c3c(NC[C@@H](O)c4cccc(Cl)c4)cc[nH]c3=O)nc12", "note": "+ O=C(Nc1ccccc1)c1cc([N+](=O)[O-])ccc1Cl [GW9662] (first compound 0.2 µM, partner dose 2 µM)", "cleaved PARP positive nuclei fraction": 63.1}, {"smiles": "Nc1cccc2c1CN(C1CCC(=O)NC1=O)C2=O", "note": "(centres undefined) [lenalidomide] + O=C(Nc1ccccc1)c1cc([N+](=O)[O-])ccc1Cl [GW9662] (first compound 1 µM, partner dose 2 µM)", "cleaved PARP positive nuclei fraction": 72.4}, {"smiles": "CC(C)(C)c1cnc(CSc2cnc(NC(=O)C3CCNCC3)s2)o1", "note": "+ Oc1cc(-c2nc(-c3ccccc3)[nH]c2-c2ccncc2)ccc1Cl [L779450] (first compound 0.01 µM, partner dose 0.2 µM)", "cleaved PARP positive nuclei fraction": 64}, {"smiles": "Cc1nc(Nc2ncc(C(=O)Nc3c(C)cccc3Cl)s2)cc(N2CCN(CCO)CC2)n1", "note": "[dasatanib] + COC(=O)c1sccc1S(=O)(=O)Nc1ccc(Nc2ccccc2)cc1OC [GSK0660] (first compound 0.004 µM, partner dose 1 µM)", "cleaved PARP positive nuclei fraction": 37}, {"smiles": "C#Cc1cccc(Nc2ncnc3cc(OCCOC)c(OCCOC)cc23)c1", "note": "[erlotinib] + O=C(O)C(=O)Nc1sc2c(c1C(=O)O)CCNC2 [TCS401] (first compound 0.8 µM, partner dose 1.66667 µM)", "cleaved PARP positive nuclei fraction": 89.1}, {"smiles": "Cn1c(Nc2ccc(C(F)(F)F)cc2)nc2cc(Oc3ccnc(-c4ncc(C(F)(F)F)[nH]4)c3)ccc21", "note": "+ CCCCCCCCCCCC1=C(O)C(=O)C=C(O)C1=O [Embelin] (first compound 0.08 µM, partner dose 1.2 µM)", "cleaved PARP positive nuclei fraction": 124}, {"smiles": "Cn1cncc1[C@@](N)(c1ccc(Cl)cc1)c1ccc2c(c1)c(-c1cccc(Cl)c1)cc(=O)n2C", "note": "[tipifarnib] + COc1cc2ncnc(Nc3ccc(Oc4ccccc4)cc3)c2cc1OC [SrcI1] (first compound 0.01 µM, partner dose 2 µM)", "cleaved PARP positive nuclei fraction": 266}, {"smiles": "C#Cc1cccc(Nc2ncnc3cc(OCCOC)c(OCCOC)cc23)c1", "note": "[erlotinib] + COc1cc2ncnc(Nc3ccc(Oc4ccccc4)cc3)c2cc1OC [SrcI1] (first compound 0.8 µM, partner dose 2 µM)", "cleaved PARP positive nuclei fraction": 176}, {"smiles": "Nc1cccc2c1CN(C1CCC(=O)NC1=O)C2=O", "note": "(centres undefined) [lenalidomide] + Cn1cc(/C=C2\\C(=O)Nc3cccnc32)c2ccccc21 [GW441756] (first compound 1 µM, partner dose 0.4 µM)", "cleaved PARP positive nuclei fraction": 69.5}, {"smiles": "Cc1nc(Nc2ncc(C(=O)Nc3c(C)cccc3Cl)s2)cc(N2CCN(CCO)CC2)n1", "note": "[dasatanib] + c1cc(-c2cnn3cc(-c4ccc(OCCN5CCCCC5)cc4)cnc23)ccn1 [Dorsomorphin] (first compound 0.004 µM, partner dose 0.4 µM)", "cleaved PARP positive nuclei fraction": 85.1}, {"smiles": "Cn1cncc1[C@@](N)(c1ccc(Cl)cc1)c1ccc2c(c1)c(-c1cccc(Cl)c1)cc(=O)n2C", "note": "[tipifarnib] + O=C(O)C(=O)Nc1sc2c(c1C(=O)O)CCNC2 [TCS401] (first compound 0.01 µM, partner dose 1.66667 µM)", "cleaved PARP positive nuclei fraction": 88.4}, {"smiles": "Cn1c(Nc2ccc(C(F)(F)F)cc2)nc2cc(Oc3ccnc(-c4ncc(C(F)(F)F)[nH]4)c3)ccc21", "note": "+ O=C(Nc1ccccc1)c1cc([N+](=O)[O-])ccc1Cl [GW9662] (first compound 0.08 µM, partner dose 2 µM)", "cleaved PARP positive nuclei fraction": 251}, {"smiles": "Cn1cncc1[C@@](N)(c1ccc(Cl)cc1)c1ccc2c(c1)c(-c1cccc(Cl)c1)cc(=O)n2C", "note": "[tipifarnib] + Oc1nc(-c2ccc(C(F)(F)F)cc2)nc2c1CSCC2 [XAV939] (first compound 0.01 µM, partner dose 2 µM)", "cleaved PARP positive nuclei fraction": 78.7}, {"smiles": "Cn1nnc2c(C(N)=O)ncn2c1=O", "note": "[temozolomide] + COc1ccc2c(c1)CCC1C2CCC2(C)C(NCCCCCCN3C(=O)C=CC3=O)CCC12 [U73122] (first compound 2 µM, partner dose 0.4 µM)", "cleaved PARP positive nuclei fraction": 167}]}]}
